Assay results published in PMC8638142.
Results are given in words; binding and its absence hold for the method and conditions named. Binding seen in cells or lysates may run through a third protein. Some entries that bind do so weakly or less than the wild type. For some assays here: Sequences can lack the tags named with a protein.

The chains behind the UniProt entries cited, without tags or fusion partners.
UniProt P35222: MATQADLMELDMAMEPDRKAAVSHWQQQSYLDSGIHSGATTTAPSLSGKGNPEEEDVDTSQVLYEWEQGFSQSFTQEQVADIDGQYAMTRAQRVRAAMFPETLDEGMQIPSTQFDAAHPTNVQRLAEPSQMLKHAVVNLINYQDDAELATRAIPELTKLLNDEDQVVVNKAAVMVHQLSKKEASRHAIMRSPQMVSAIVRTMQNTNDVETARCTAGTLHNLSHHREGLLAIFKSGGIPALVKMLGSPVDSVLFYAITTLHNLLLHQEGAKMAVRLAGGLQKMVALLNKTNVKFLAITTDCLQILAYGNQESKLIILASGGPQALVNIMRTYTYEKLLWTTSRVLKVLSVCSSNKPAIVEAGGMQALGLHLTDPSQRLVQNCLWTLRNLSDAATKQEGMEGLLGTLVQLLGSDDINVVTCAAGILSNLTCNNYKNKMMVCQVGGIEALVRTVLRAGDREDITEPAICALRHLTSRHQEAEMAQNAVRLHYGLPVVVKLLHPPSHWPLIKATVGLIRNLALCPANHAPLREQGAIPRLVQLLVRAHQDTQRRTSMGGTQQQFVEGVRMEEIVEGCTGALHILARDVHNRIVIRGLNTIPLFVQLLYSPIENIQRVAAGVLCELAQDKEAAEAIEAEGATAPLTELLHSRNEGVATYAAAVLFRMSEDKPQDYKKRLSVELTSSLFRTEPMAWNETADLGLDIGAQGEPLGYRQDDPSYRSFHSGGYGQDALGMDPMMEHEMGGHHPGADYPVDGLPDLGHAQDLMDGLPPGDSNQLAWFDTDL

Legend:
[1] = target: T1, PKMYT1 (the protein kinase, membrane-associated tyrosine/threonine 1), endogenous (human (endogenous in A549)) (UniProt Q99640); assay: co-IP; endogenous proteins in A549 cells; IP lysis buffer (1 mM NaF, 50 mM Tris-HCl pH 8.0, 120 mM NaCl, 0.5% NP40, 1 mM EDTA); detection by immunoblot
T1 sequence: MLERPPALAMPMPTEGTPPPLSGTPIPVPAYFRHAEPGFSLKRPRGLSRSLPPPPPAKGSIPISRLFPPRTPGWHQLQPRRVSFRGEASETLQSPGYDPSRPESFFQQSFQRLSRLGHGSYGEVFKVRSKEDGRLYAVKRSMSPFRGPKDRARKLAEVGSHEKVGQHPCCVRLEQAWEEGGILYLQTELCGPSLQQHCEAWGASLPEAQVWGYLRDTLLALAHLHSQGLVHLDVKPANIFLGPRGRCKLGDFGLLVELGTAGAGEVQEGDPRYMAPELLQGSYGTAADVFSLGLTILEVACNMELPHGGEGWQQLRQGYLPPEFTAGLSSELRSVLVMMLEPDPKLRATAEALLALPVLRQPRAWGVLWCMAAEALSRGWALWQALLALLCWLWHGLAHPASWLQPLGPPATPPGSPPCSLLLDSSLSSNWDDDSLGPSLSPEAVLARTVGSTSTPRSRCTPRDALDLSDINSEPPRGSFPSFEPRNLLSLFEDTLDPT

[2] = target: T2, PKMYT1 (exogenous, Myc-tagged or HA-tagged) (UniProt Q99640); assay: co-IP; indicated constructs transfected into HEK-293T cells; lysates in IP lysis buffer (1 mM NaF, 50 mM Tris-HCl pH 8.0, 120 mM NaCl, 0.5% NP40, 1 mM EDTA) immunoprecipitated with indicated primary antibodies; detection by immunoblot
T2 sequence: T1 sequence

binding [1] | binding [2] | Substance
binds |  | β-catenin (endogenous) (from UniProt P35222 1-781)
 | binds | β-catenin-Flag (exogenous) (from UniProt P35222 1-781)
